From PubChem BioAssay AID758 (NMMLSC, 2007)
Out of some 190,000 compounds screened, about 110 (0.058%) were called active. Inconclusive results, whose numbers are uncertain, are shown with a selection of clear calls.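 How the source made its calls: active means fluorescent GTP binding to Rab7 beads changed by at least 20 points from the 100% baseline, either direction, mostly lower; inconclusive means compound itself probably fluorescent, or too few beads counted; inactive means the rest.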

System: Rab7 GTPase wild type (dog), Bodipy-FL-GTP binding
Assay: modulators of GTP binding to Rab7, primary screen, biochemical, wildtype, multiplex bead flow cytometry (AID 758);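 further: median green fluorescence of bound Bodipy-FL-GTP per Rab7 bead population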
Details: GST-Rab7 beads, fluorescent GTP binding, at 10 µM, actives lie on both sides, untreated = 100%, excess cold GTP = 0%

Q: For `CCN(CC)CCNC(=O)c1ccc(Sc2ccc(C)cc2)c(NC(C)=O)c1`, which GTP binding activity (percent of control) is on record?
A: Its GTP binding activity (percent of control) is inactive: 98%.

Q: How did the GTP binding activity (percent of control) turn out when `CC1(C)CC(=O)C/C(=N\NC(=O)C2CC23CCC3)C1` (stereo unspecified) was run?
A: Its GTP binding activity (percent of control) is inactive: 95%.

Q: Which GTP binding activity (percent of control) does the source give for `CCOC(=O)c1cccc(NC(=O)CCS(=O)(=O)c2ccc(Br)s2)c1` here?
A: The GTP binding activity (percent of control) was inconclusive: 101%.

Q: Which GTP binding activity (percent of control) does the source give for `Cc1cc(C)n2c(SCc3nnc(-c4cccs4)o3)nnc2n1` here?
A: Its GTP binding activity (percent of control) is inconclusive: 94%.

Q: With `CCOC(=O)c1ccc(S(=O)(=O)NC2CCCCCCC2)n1C` as the compound, how does the GTP binding activity (percent of control) read?
A: Its GTP binding activity (percent of control) is inconclusive: 92%.

Q: How did the GTP binding activity (percent of control) turn out when `NC(=O)c1c(NC(=O)c2ccncc2)sc2c1CCCC2` was run?
A: The GTP binding activity (percent of control) was inactive: 94%.

Q: With `C=CCSc1nc(N)c(C#N)c(-c2ccc(C)cc2)c1C#N` as the compound, how does the GTP binding activity (percent of control) read?
A: The GTP binding activity (percent of control) was inactive: 94%.

Q: `O=C(N/N=C/c1cccnc1)c1ccc2c(c1)OCCO2` was tested. Which GTP binding activity (percent of control) did it give?
A: Its GTP binding activity (percent of control) is inactive: 100%.

Q: Which GTP binding activity (percent of control) does the source give for `COCCN1C(=O)/C(=C/c2ccc(N3CCCC3)cc2)SC1=S` here?
A: The GTP binding activity (percent of control) was inconclusive: 125%.

Q: `COc1cccc(OCC(=O)O/N=C(\N)c2ccc(OC)c(OC)c2)c1` was tested. Which GTP binding activity (percent of control) did it give?
A: The GTP binding activity (percent of control) was inconclusive: 92%.

Q: For `CNc1nc(-c2ccccn2)nnc1-c1ccccc1`, which GTP binding activity (percent of control) is on record?
A: Its GTP binding activity (percent of control) is inconclusive: 100%.

Q: With `C=CCOc1ccc(/C=N/NC(=O)C(C)Sc2ccccn2)cc1OC` (stereo unspecified) as the compound, how does the GTP binding activity (percent of control) read?
A: The GTP binding activity (percent of control) was inconclusive: 101%.

Q: Which GTP binding activity (percent of control) does the source give for `N#C/C(=C/c1ccc(N2CCCCC2)o1)C(=O)Nc1ccc(Cl)cc1` here?
A: Its GTP binding activity (percent of control) is inconclusive: 112%.

Q: With `NC(N)=NC1=NC(=O)/C(=C/c2ccccc2-n2cccn2)S1` as the compound, how does the GTP binding activity (percent of control) read?
A: The GTP binding activity (percent of control) was inconclusive: 109%.

Q: `Cc1cc(N/N=C/c2ccc(O)cc2O)nc(-n2nc(C)cc2C)n1` was tested. Which GTP binding activity (percent of control) did it give?
A: The GTP binding activity (percent of control) was inconclusive: 75%.

Q: With `CCc1nnc(NS(=O)(=O)c2ccc(N=Cc3c(C)[nH]n(-c4cccc(Cl)c4)c3=O)cc2)s1` as the compound, how does the GTP binding activity (percent of control) read?
A: The GTP binding activity (percent of control) was inconclusive: 93%.

Q: Which GTP binding activity (percent of control) does the source give for `COc1ccc(OCC(=O)Nc2cccc(NC(=O)COc3ccc(OC)cc3)n2)cc1` here?
A: Its GTP binding activity (percent of control) is inconclusive: 95%.

Q: With `CC(C)CC(=O)O/N=C1\C(=O)N(Cc2ccc(Cl)cc2)c2ccc([N+](=O)[O-])cc21` as the compound, how does the GTP binding activity (percent of control) read?
A: The GTP binding activity (percent of control) was inactive: 100%.

Q: With `CCCCCCn1nc(C(=O)OCC(=O)NC2CCS(=O)(=O)C2)c2ccccc2c1=O` (stereo unspecified) as the compound, how does the GTP binding activity (percent of control) read?
A: Its GTP binding activity (percent of control) is inactive: 99%.

Q: For `COc1cc([C@H]2[C@@H]3CCCC[C@]3(O)CCN2CC(=O)Nc2ccc(C)cc2)ccc1O`, which GTP binding activity (percent of control) is on record?
A: The GTP binding activity (percent of control) was inactive: 99%.

Q: Which GTP binding activity (percent of control) does the source give for `S=C(Nc1ccc(Oc2ccc(NC(=S)NC3CCCCC3)cc2)cc1)NC1CCCCC1` here?
A: Its GTP binding activity (percent of control) is inactive: 98%.

Q: With `Cn1c(C(=O)N2CCN(Cc3ccc4c(c3)OCO4)CC2)cc2c(=O)n(C)c3ccccc3c21` as the compound, how does the GTP binding activity (percent of control) read?
A: The GTP binding activity (percent of control) was inconclusive: 88%.

Q: `COc1cc2cc(C)c3nnc(SCC(=O)Nc4cc(C)on4)n3c2cc1OC` was tested. Which GTP binding activity (percent of control) did it give?
A: Its GTP binding activity (percent of control) is inconclusive: 88%.

Q: With `COc1ccc(/C=C(\C#N)C(=O)NCC2CCCO2)cc1OC` (stereo unspecified) as the compound, how does the GTP binding activity (percent of control) read?
A: Its GTP binding activity (percent of control) is inconclusive: 104%.

Q: For `O=C(NCCCN1CCOCC1)c1cc(C(=O)C2CCCCC2)c[nH]1`, which GTP binding activity (percent of control) is on record?
A: The GTP binding activity (percent of control) was inconclusive: 99%.

Q: `O=C(Cc1cccs1)Nc1cccc(C(=O)Nc2ccc(C(=O)O)cc2)c1` was tested. Which GTP binding activity (percent of control) did it give?
A: The GTP binding activity (percent of control) was inactive: 101%.

Q: How did the GTP binding activity (percent of control) turn out when `Cc1cc(N=CC2=C(O)CC(C)(C)CC2=O)no1` was run?
A: The GTP binding activity (percent of control) was inconclusive: 89%.

Q: `Cc1noc(C)c1COc1cccc(C(=O)NCc2ccccc2Cl)c1` was tested. Which GTP binding activity (percent of control) did it give?
A: The GTP binding activity (percent of control) was active: 67%.

Q: With `CCOC(=O)c1c(C=O)c2sc(C)cc2n1C` as the compound, how does the GTP binding activity (percent of control) read?
A: Its GTP binding activity (percent of control) is inactive: 95%.

Q: For `CCOc1ccc(N=Nc2c(C)noc2C)cc1`, which GTP binding activity (percent of control) is on record?
A: The GTP binding activity (percent of control) was inactive: 99%.

Q: With `Cn1c(=O)cc(N2CCOCC2)[nH]c1=O` as the compound, how does the GTP binding activity (percent of control) read?
A: The GTP binding activity (percent of control) was inconclusive: 229%.

Q: How did the GTP binding activity (percent of control) turn out when `O=C(O)c1ccc2c(=O)[nH]c(CN3CCOCC3)nc2c1` was run?
A: Its GTP binding activity (percent of control) is inconclusive: 106%.

Q: How did the GTP binding activity (percent of control) turn out when `Cc1ccc(-c2nnc(-c3ccc(NC(=O)c4cccs4)cc3)o2)cc1` was run?
A: Its GTP binding activity (percent of control) is inconclusive: 96%.

Q: With `CCOC(=O)NN1C(=O)c2ccccc2NC1c1ccccc1` (stereo unspecified) as the compound, how does the GTP binding activity (percent of control) read?
A: Its GTP binding activity (percent of control) is inconclusive: 99%.

Q: Which GTP binding activity (percent of control) does the source give for `CC(NCc1ccc(N(C)C)cc1)C1CC2CCC1C2` (stereo unspecified) here?
A: Its GTP binding activity (percent of control) is inactive: 104%.

Q: How did the GTP binding activity (percent of control) turn out when `O=C(CC1C(=O)NCCN1Cc1ccc(-c2ccccc2)cc1)NCCCn1cccn1` (stereo unspecified) was run?
A: Its GTP binding activity (percent of control) is inconclusive: 94%.

Q: With `COc1cc(C(=O)Nc2nnc(CC(C)C)s2)c([N+](=O)[O-])cc1OC` as the compound, how does the GTP binding activity (percent of control) read?
A: The GTP binding activity (percent of control) was inconclusive: 99%.

Q: With `CCOC(=O)c1c(NC(=O)N/N=C/c2ccccc2OCC)sc(C(C)=O)c1C` as the compound, how does the GTP binding activity (percent of control) read?
A: Its GTP binding activity (percent of control) is inconclusive: 120%.

Q: `CC(C)NS(=O)(=O)c1ccc(OCC(=O)N2CCCC2)c(Cl)c1` was tested. Which GTP binding activity (percent of control) did it give?
A: The GTP binding activity (percent of control) was inconclusive: 99%.

Q: Which GTP binding activity (percent of control) does the source give for `CCOC(=O)C1CCCN(C(=O)CCn2nc(-c3ccccc3)ccc2=O)C1` (stereo unspecified) here?
A: The GTP binding activity (percent of control) was inconclusive: 102%.

Q: With `COc1ccc2[nH]c(=O)c(CN(Cc3ccc4c(c3)OCO4)C(C)=O)cc2c1` as the compound, how does the GTP binding activity (percent of control) read?
A: Its GTP binding activity (percent of control) is inconclusive: 90%.

Q: Which GTP binding activity (percent of control) does the source give for `O=C(c1ccccc1NS(=O)(=O)c1ccc(F)cc1)N1CCc2ccccc21` here?
A: Its GTP binding activity (percent of control) is inconclusive: 98%.

Q: How did the GTP binding activity (percent of control) turn out when `CN1CCC(NC(=S)Nc2cccc([N+](=O)[O-])c2)CC1` was run?
A: Its GTP binding activity (percent of control) is inactive: 97%.

Q: How did the GTP binding activity (percent of control) turn out when `Cc1ccccc1CNc1nnnn1C` was run?
A: The GTP binding activity (percent of control) was inactive: 98%.

Q: Which GTP binding activity (percent of control) does the source give for `O=C1CSc2ccc(C(=O)NCCC3=CCCCC3)cc2N1` here?
A: The GTP binding activity (percent of control) was inconclusive: 94%.

Q: `COc1cc(/C=N/NC(=O)CN(Cc2ccco2)S(=O)(=O)c2ccccc2)ccc1O` was tested. Which GTP binding activity (percent of control) did it give?
A: The GTP binding activity (percent of control) was inactive: 94%.
